# Reference: the supplement of paper PMC8728848
# This is one part of the list.
# B1: AT1G77380(17) (Arabidopsis thaliana), Q39134 (protein)
# chain: MVQNHQTVLAVDMPQTGGSKYLDDDGKNKRTGSVWTASAHIITAVIGSGVLSLAWATAQLGWLAGPVVMLLFSAVTYFTSSLLAACYRSGDPISGKRNYTYMDAVRSNLGGVKVTLCGIVQYLNIFGVAIGYTIASAISMMAIKRSNCFHKSGGKDPCHMNSNPYMIAFGLVQILFSQIPDFDQLWWLSILAAVMSFTYSSAGLALGIAQVVVNGKVKGSLTGISIGAVTETQKIWRTFQALGDIAFAYSYSIILIEIQDTVKSPPSEEKTMKKATLVSVSVTTMFYMLCGCMGYAAFGDLSPGNLLTGFGFYNPYWLLDIANAAIVIHLIGAYQVYCQPLFAFIEKQASIQFPDSEFIAKDIKIPIPGFKPLRLNVFRLIWRTVFVIITTVISMLLPFFNDVVGLLGALGFWPLTVYFPVEMYIAQKKIPRWSTRWVCLQVFSLGCLVVSIAAAAGSIAGVLLDLKSYKPFRSEY
# How the values were obtained:
# Assay in all cases: glycan array binding signal (z-score within array); higher = stronger binding
# Settings in all cases: glycan notation: IUPAC condensed, linker removed
# [1] = biological target: Fuc(a1-3)[Gal(b1-4)]GlcNAc(b1-3)Gal(b1-3)[Fuc(a1-4)]GlcNAc
# Method in brief: (§1)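 From the Consortium for Functional Glycomics database, 3228 arrays were curated, keeping only those whose protein sequence was available. Binding is given as a within-array Z-score averaged across arrays sharing a protein sequence and across linkers. Negative Z-scores can be read as non-binding.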
# [2] = biological target: Fuc(a1-3)[Gal(b1-4)]GlcNAc(b1-3)Gal(b1-4)[Fuc(a1-3)]GlcNAc
# Method in brief: as §1
# [3] = biological target: Fuc(a1-3)[Gal(b1-4)]GlcNAc(b1-3)Gal(b1-4)[Fuc(a1-3)]GlcNAc(b1-3)Gal(b1-4)[Fuc(a1-3)]GlcNAc
# Method in brief: as §1
# [4] = biological target: Fuc(a1-3)[Gal(b1-4)]GlcNAc(b1-3)GalNAc
# Method in brief: as §1
# [5] = biological target: Fuc(a1-3)[Gal(b1-4)]GlcNAc(b1-6)GalNAc
# Method in brief: as §1
# [6] = biological target: Fuc(a1-3)[Gal(b1-4)]GlcNAc(b1-6)[Gal(b1-3)GlcNAc(b1-3)]Gal(b1-4)Glc
# Method in brief: as §1
# [7] = biological target: Fuc(a1-3)[Gal(b1-4)]GlcNAc6S
# Method in brief: as §1
# [8] = biological target: Fuc(a1-3)[Gal3S(b1-4)]Glc
# Method in brief: as §1
# [9] = biological target: Fuc(a1-3)[Gal3S(b1-4)]GlcNAc
# Method in brief: as §1
# [10] = biological target: Fuc(a1-3)[Gal3S(b1-4)]GlcNAc6S
# Method in brief: as §1
# [11] = biological target: Fuc(a1-3)[GalNAc(b1-4)]GlcNAc
# Method in brief: as §1
# [12] = biological target: Fuc(a1-3)[GalNAc(b1-4)]GlcNAc6S
# Method in brief: as §1
# Fuc(a1-4)GlcNAc = biological target: Fuc(a1-4)GlcNAc
# Method in brief: as §1
# Fuc(b1-3)GlcNAc = biological target: Fuc(b1-3)GlcNAc
# Method in brief: as §1
# Gal(a1-2)Gal = biological target: Gal(a1-2)Gal
# Method in brief: as §1
# Gal(a1-3)Gal = biological target: Gal(a1-3)Gal
# Method in brief: as §1
# Gal(a1-3)Gal(b1-3)GlcNAc = biological target: Gal(a1-3)Gal(b1-3)GlcNAc
# Method in brief: as §1
# [13] = biological target: Gal(a1-3)Gal(b1-3)GlcNAc(b1-2)Man
# Method in brief: as §1
# [14] = biological target: Gal(a1-3)Gal(b1-3)GlcNAc(b1-2)Man(a1-3)[Gal(a1-3)Gal(b1-3)GlcNAc(b1-2)Man(a1-6)]Man(b1-4)GlcNAc(b1-4)GlcNAc
# Method in brief: as §1
# [15] = biological target: Gal(a1-3)Gal(b1-3)GlcNAc(b1-3)GalNAc
# Method in brief: as §1
# [16] = biological target: Gal(a1-3)Gal(b1-3)GlcNAc(b1-6)GalNAc
# Method in brief: as §1
# [17] = biological target: Gal(a1-3)Gal(b1-3)[Fuc(a1-4)]GlcNAc(b1-2)Man(a1-3)[Gal(a1-3)Gal(b1-3)[Fuc(a1-4)]GlcNAc(b1-2)Man(a1-6)]Man(b1-4)GlcNAc(b1-4)GlcNAc
# Method in brief: as §1
# Gal(a1-3)Gal(b1-4)Glc = biological target: Gal(a1-3)Gal(b1-4)Glc
# Method in brief: as §1
# Gal(a1-3)Gal(b1-4)GlcNAc = biological target: Gal(a1-3)Gal(b1-4)GlcNAc
# Method in brief: as §1
# [18] = biological target: Gal(a1-3)Gal(b1-4)GlcNAc(b1-2)Man
# Method in brief: as §1
# [19] = biological target: Gal(a1-3)Gal(b1-4)GlcNAc(b1-2)Man(a1-3)[Gal(a1-3)Gal(b1-4)GlcNAc(b1-2)Man(a1-6)]Man(b1-4)GlcNAc(b1-4)GlcNAc
# Method in brief: as §1
# [20] = biological target: Gal(a1-3)Gal(b1-4)GlcNAc(b1-3)GalNAc
# Method in brief: as §1
# [21] = biological target: Gal(a1-3)Gal(b1-4)GlcNAc(b1-6)GalNAc
# Method in brief: as §1
# [22] = biological target: Gal(a1-3)Gal(b1-4)[Fuc(a1-3)]GlcNAc
# Method in brief: as §1
# [23] = biological target: Gal(a1-3)Gal(b1-4)[Fuc(a1-3)]GlcNAc(b1-2)Man(a1-3)[Gal(a1-3)Gal(b1-4)[Fuc(a1-3)]GlcNAc(b1-2)Man(a1-6)]Man(b1-4)GlcNAc(b1-4)GlcNAc
# Method in brief: as §1
# Gal(a1-3)GalNAc = biological target: Gal(a1-3)GalNAc
# Method in brief: as §1
# [24] = biological target: Gal(a1-3)[Gal(a1-4)]Gal(b1-4)GlcNAc
# Method in brief: as §1
# [25] = biological target: Gal(a1-4)Gal(b1-3)GlcNAc(b1-2)Man(a1-3)[Gal(a1-4)Gal(b1-3)GlcNAc(b1-2)Man(a1-6)]Man(b1-4)GlcNAc(b1-4)GlcNAc
# Method in brief: as §1
# Gal(a1-4)Gal(b1-4)Glc = biological target: Gal(a1-4)Gal(b1-4)Glc
# Method in brief: as §1
# Gal(a1-4)Gal(b1-4)GlcNAc = biological target: Gal(a1-4)Gal(b1-4)GlcNAc
# Method in brief: as §1
# [26] = biological target: Gal(a1-4)Gal(b1-4)GlcNAc(b1-2)Man(a1-3)[Gal(a1-4)Gal(b1-4)GlcNAc(b1-2)Man(a1-6)]Man(b1-4)GlcNAc(b1-4)GlcNAc
# Method in brief: as §1
# [27] = biological target: Gal(a1-4)Gal(b1-4)GlcNAc(b1-3)Gal(b1-4)Glc
# Method in brief: as §1
# Gal(a1-4)GlcNAc = biological target: Gal(a1-4)GlcNAc
# Method in brief: as §1
binder,measurement,setting,value
B1,glycan array binding signal (z-score),[1],0.289
same,glycan array binding signal (z-score),[2],-0.28
same,glycan array binding signal (z-score),[3],-0.877
same,glycan array binding signal (z-score),[4],0.285
same,glycan array binding signal (z-score),[5],1.82
same,glycan array binding signal (z-score),[6],2.75
same,glycan array binding signal (z-score),[7],-0.298
same,glycan array binding signal (z-score),[8],-0.751
same,glycan array binding signal (z-score),[9],0.3
same,glycan array binding signal (z-score),[10],-0.316
same,glycan array binding signal (z-score),[11],-0.276
same,glycan array binding signal (z-score),[12],-0.818
same,glycan array binding signal (z-score),Fuc(a1-4)GlcNAc,1.45
same,glycan array binding signal (z-score),Fuc(b1-3)GlcNAc,-0.021
same,glycan array binding signal (z-score),Gal(a1-2)Gal,0.129
same,glycan array binding signal (z-score),Gal(a1-3)Gal,-0.04
same,glycan array binding signal (z-score),Gal(a1-3)Gal(b1-3)GlcNAc,-0.752
same,glycan array binding signal (z-score),[13],-0.943
same,glycan array binding signal (z-score),[14],0.04
same,glycan array binding signal (z-score),[15],-0.155
same,glycan array binding signal (z-score),[16],-0.733
same,glycan array binding signal (z-score),[17],1.44
same,glycan array binding signal (z-score),Gal(a1-3)Gal(b1-4)Glc,-0.793
same,glycan array binding signal (z-score),Gal(a1-3)Gal(b1-4)GlcNAc,-0.02
same,glycan array binding signal (z-score),[18],-0.461
same,glycan array binding signal (z-score),[19],-0.526
same,glycan array binding signal (z-score),[20],-0.346
same,glycan array binding signal (z-score),[21],-0.872
same,glycan array binding signal (z-score),[22],-0.879
same,glycan array binding signal (z-score),[23],-0.4
same,glycan array binding signal (z-score),Gal(a1-3)GalNAc,0.76
same,glycan array binding signal (z-score),[24],3.09
same,glycan array binding signal (z-score),[25],-0.488
same,glycan array binding signal (z-score),Gal(a1-4)Gal(b1-4)Glc,0.279
same,glycan array binding signal (z-score),Gal(a1-4)Gal(b1-4)GlcNAc,1.77
same,glycan array binding signal (z-score),[26],-0.216
same,glycan array binding signal (z-score),[27],0.103
same,glycan array binding signal (z-score),Gal(a1-4)GlcNAc,-0.902

# Some of the entries so far, with tabs:
binder	measurement	setting	value
B1	glycan array binding signal (z-score)	[10]	-0.316
same	glycan array binding signal (z-score)	[11]	-0.276
same	glycan array binding signal (z-score)	[12]	-0.818
